Measured values taken from PubChem BioAssay AID2685 (National Center for Advancing Translational Sciences (NCATS), 2010).
Screen size: about 320,000 compounds; about 2,100 (0.66%) were called active. This list was built around the results that the source calls inconclusive (neither active nor inactive); the mix of calls is not that of the screen. Calls follow the shape of the dose curve; as a rule, active = well fitted inhibition curve with a large enough effect in the signal ratio, with a control signal flat (not every such curve was filed as active); inconclusive = small, poorly fitted or top-dose-only effect, or effect the other way, or a change in a side signal; inactive = flat fitted curve, though single readings scatter; the % refers to the signal ratio.

Assay: qHTS Assay for Lipid Storage Modulators in Drosophila S3 Cells
Conditions: BODIPY lipid droplet fluorescence, 18-24 h, cells fed with added oleic acid; lipid storage change, negative = inhibition: at 46.1 µM (top of the series) unless noted
In short: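 Drosophila S3 cells got compounds at several concentrations plus oleic acid (400 uM solution). Laser-scanning cytometry with 488 nm excitation read lipid droplets at 500-530 nm and cells at 575-640 nm. Percent activity was relative to 20 uM Triacsin C.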
% is scaled to controls: 0 for no effect and ±100 for the full control effect.

Q: For `CCc1nnc(NS(=O)(=O)c2ccc(N/C=C(\C=O)c3nc4cc(Cl)ccc4o3)cc2)s1`, which lipid storage change, negative = inhibition is on record?
A: inconclusive: -14.4%
